{"sequences": {"note": "Sequences of proteins named here, by UniProt entry; tags and fusion partners are left off.", "UniProt Q07412": "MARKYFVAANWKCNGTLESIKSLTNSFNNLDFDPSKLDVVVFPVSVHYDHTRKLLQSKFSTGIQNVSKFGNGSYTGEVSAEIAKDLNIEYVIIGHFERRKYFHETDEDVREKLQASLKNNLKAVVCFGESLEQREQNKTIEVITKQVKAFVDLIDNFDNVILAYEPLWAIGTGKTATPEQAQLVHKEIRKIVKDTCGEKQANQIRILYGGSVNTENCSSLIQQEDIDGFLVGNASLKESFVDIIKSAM"}, "source": "paper PMC6987189", "about": "“Native aggregation is a common feature among triosephosphate isomerases of different species” (Scientific Reports, 2020)", "target": "Plasmodium falciparum triosephosphate isomerase (Plasmodium falciparum) (UniProt Q07412)", "assay": "condition: only with lithium dodecyl sulphate (concentrations in Figure 4B); native gel or EMSA; BN-PAGE of thirty micrograms of purified TIM loaded with increasing concentrations of lithium dodecyl sulphate (LDS); aggregates to single monomers; both purified", "note": "No constants are given. Whether binding was seen depends on the method and setting.", "data": [{"substance": "Plasmodium falciparum triosephosphate isomerase (from UniProt Q07412 1-248) (enzyme)", "values": [{"measurement": "binding", "value": "no binding"}]}]}
